Test results reported in publication PMC7819943, “Rice protein-binding microarrays: a tool to detect cis-acting elements near promoter regions in rice”.
The other results are listed elsewhere or left out.

Protein sequences, listed by entry. Tags and fused reporters are not part of them.
UniProt Q0JBA9, entry or part of it: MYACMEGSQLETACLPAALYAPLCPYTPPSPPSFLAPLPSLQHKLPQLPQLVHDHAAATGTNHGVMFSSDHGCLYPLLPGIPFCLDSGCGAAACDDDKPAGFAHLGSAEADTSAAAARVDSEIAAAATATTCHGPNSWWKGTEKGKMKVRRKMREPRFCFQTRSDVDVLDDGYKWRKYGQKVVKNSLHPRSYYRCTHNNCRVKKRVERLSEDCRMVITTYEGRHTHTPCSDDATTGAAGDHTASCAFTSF

The sequences below were run against OsWRKY34 (Oryza sativa, UniProt Q0JBA9 1-250) (assay: protein-binding microarray (RPBM); PBS, 2% BSA, 51.3 ng/ul salmon testes DNA, 50 uM zinc acetate, 200 nM TF, 25 C, 1 h; high values mean tight binding). Conditions: protein: recombinant; tags: N-terminal polyhistidine and DsRed monomer fusion (pET32a); label: CyDye5-dUTP incorporated in the synthesized complementary strand; 3' TTTTT single-stranded linker to array surface; dsDNA, one strand shown.
In short: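 A custom Agilent array was converted to double-stranded form by primer extension with Cy5-dUTP and blocked with 2% BSA. Protein at 200 nM in PBS with 2% BSA, salmon testes DNA and 50 µM zinc acetate was applied for 1 h at 25 °C, followed by washing. The proteins were polyhistidine–DsRed N-terminal fusions of transcription factors, expressed in E. coli BL21-CodonPlus and Ni–NTA-purified. The binding signal is per-feature fluorescence intensity (arbitrary units) from an Axon 4000B scanner.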

First: TCCAGTCCGCCGCCCCTACGCCGGTCACCATCGCCGTCATCGGAGTCACCTAGTGCAG
Second: ATACTTAAATTTAATGCTACTTATCACATGATGTCTTGGACGGAGTCACCTAGTGCAG
The binding signal of the first is higher: 10100 fluorescence intensity (a.u.) for the first, 8330 fluorescence intensity (a.u.) for the second.

Going from “ACGGCGCGGCGGGGCGACCAGGAGGGGCGGGGTGGCGCGGCGGAGTCACCTAGTGCAG” to “GCTGCCGCTCTTCGCCTCTTTTCCGGCCTTCTTTTGATCACGGAGTCACCTAGTGCAG”, the binding signal falls from 13300 fluorescence intensity (a.u.) to 11700 fluorescence intensity (a.u.).

Compared with “AATCATCTCATTTCTTCTGCTGGTTCCCTACTCTAGCTCGCGGAGTCACCTAGTGCAG”, “TTTTGGAGGTGTTACAGGGGTAAGTATGTGCGTTTGCATGCGGAGTCACCTAGTGCAG” is lower in binding signal: 8760 fluorescence intensity (a.u.) for the first, 8720 fluorescence intensity (a.u.) for the second.

Going from “CTCTAGTGTTCTTGGCGCCTGCGCGCAAGCTTGCGCTACTCGGAGTCACCTAGTGCAG” to “AGCAGCAGCAGCAAGTGTCCCTGTGTCCGTCTCCGCTTCTCGGAGTCACCTAGTGCAG”, the binding signal rises from 8340 fluorescence intensity (a.u.) to 9210 fluorescence intensity (a.u.).

Going from “CGATCGAGCTAGCCACGCGCCTCTCTCTCTCTCTTTCCTCCGGAGTCACCTAGTGCAG” to “ATTTCTCCTGTTCCTCTTCTGCATTCGTCTCTTGAGAGTTCGGAGTCACCTAGTGCAG”, the binding signal rises from 11000 fluorescence intensity (a.u.) to 11300 fluorescence intensity (a.u.).

Compared with “ACTAATTTACCCTCTGCCATTTTGACGCGCTCTATCGTGCCGGAGTCACCTAGTGCAG”, “CCCCTTTTGTTTCCATGCGGTCTGTACGTGGAACCGCATGCGGAGTCACCTAGTGCAG” is lower in binding signal: 8610 fluorescence intensity (a.u.) for the first, 8320 fluorescence intensity (a.u.) for the second.

Going from “ACAGTGGTATGATGGTGTTCATGCCTTTCTTGCCTTCCATCGGAGTCACCTAGTGCAG” to “AATTCATTAGCTTTGCGCCGCCACCACCATAACCCCTAACCGGAGTCACCTAGTGCAG”, the binding signal rises from 8710 fluorescence intensity (a.u.) to 11800 fluorescence intensity (a.u.).

Compared with “ACCGGTCACCTTTGTCTTCTTCCATCTTCTCCTCCCTTTACGGAGTCACCTAGTGCAG”, “TGCTAGTCTTTTCTTCTTCTTTTTTCACTATCACGCAATTCGGAGTCACCTAGTGCAG” is higher in binding signal: 10000 fluorescence intensity (a.u.) for the first, 13100 fluorescence intensity (a.u.) for the second.

Going from “GCAACCTATTAAATGGTATTTTACCCTTGGCATTCTAGTCCGGAGTCACCTAGTGCAG” to “CCAGCTGCGTGCAGCGTATCGCACCCAACCCGTCCATTCCCGGAGTCACCTAGTGCAG”, the binding signal rises from 8170 fluorescence intensity (a.u.) to 8220 fluorescence intensity (a.u.).

Compared with “CACCCACGCTGCTCGGCTCGACACACATCGCCGCCTCGCCCGGAGTCACCTAGTGCAG”, “GTTAGAGTTTAACTTTTGGGCGTGGTTTCGATTTTTCTGCCGGAGTCACCTAGTGCAG” is higher in binding signal: 9220 fluorescence intensity (a.u.) for the first, 9490 fluorescence intensity (a.u.) for the second.

First: GCATATTGCAAGTAGCTGTTATCTCTTGCTTTACCTCTTGCGGAGTCACCTAGTGCAG
Second: TCCACCACCACCTTCCTGTTCGGCTCGTCCTTCTTCTTCGCGGAGTCACCTAGTGCAG
The binding signal of the first is lower: 8090 fluorescence intensity (a.u.) for the first, 10400 fluorescence intensity (a.u.) for the second.

With “ATATCTGGTTTTACGGTTCGAGGACGTTTTTATATCCCGACGGAGTCACCTAGTGCAG” the binding signal was 8110 fluorescence intensity (a.u.).
